Data: article doi:10.1101/2024.05.22.595265
Results are given in words; binding and its absence hold for the method and conditions named.

Target: Fbxw7-Skp1 complex (UniProt Q969H0)
Test: SEC

binding: no binding
Substance: N-myc transactivation domain, N-myc 1-137 (from UniProt P04198 1-137) (domain or fragment)
